Source: publication PMC7732990
Read-outs that look alike come from different tables or passages of the source. These are yes or no findings as the source states them, for the method shown. In cells and extracts the contact can be indirect. Here binding means that the protein was enriched with, or labelled near, the bait; the list need not be complete. Sequences can lack the tags named with a protein.

Sequences of proteins named here, by UniProt entry; tags and fusion partners are left off.
UniProt P17980: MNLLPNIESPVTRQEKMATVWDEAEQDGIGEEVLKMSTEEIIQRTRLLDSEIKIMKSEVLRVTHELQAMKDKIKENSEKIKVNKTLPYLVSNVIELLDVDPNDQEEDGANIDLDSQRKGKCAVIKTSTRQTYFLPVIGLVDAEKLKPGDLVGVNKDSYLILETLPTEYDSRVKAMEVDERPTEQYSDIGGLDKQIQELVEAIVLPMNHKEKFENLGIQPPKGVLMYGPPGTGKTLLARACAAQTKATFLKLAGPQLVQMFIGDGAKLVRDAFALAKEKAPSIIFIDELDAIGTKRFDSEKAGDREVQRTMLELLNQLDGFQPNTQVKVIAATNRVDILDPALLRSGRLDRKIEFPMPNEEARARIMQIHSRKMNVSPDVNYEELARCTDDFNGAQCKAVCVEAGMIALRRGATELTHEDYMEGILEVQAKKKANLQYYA
UniProt Q9Y265: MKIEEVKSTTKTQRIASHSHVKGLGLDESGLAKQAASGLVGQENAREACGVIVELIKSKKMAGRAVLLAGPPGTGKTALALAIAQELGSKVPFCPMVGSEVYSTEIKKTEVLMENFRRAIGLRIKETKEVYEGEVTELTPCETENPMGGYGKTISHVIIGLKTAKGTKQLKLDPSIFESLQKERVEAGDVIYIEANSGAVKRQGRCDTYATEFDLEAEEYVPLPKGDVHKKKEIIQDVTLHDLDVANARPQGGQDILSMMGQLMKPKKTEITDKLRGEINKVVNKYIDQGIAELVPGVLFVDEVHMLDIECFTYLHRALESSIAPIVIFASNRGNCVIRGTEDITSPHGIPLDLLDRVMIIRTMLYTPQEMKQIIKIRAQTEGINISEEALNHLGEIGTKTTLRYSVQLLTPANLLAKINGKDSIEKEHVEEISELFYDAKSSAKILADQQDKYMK
UniProt O00629: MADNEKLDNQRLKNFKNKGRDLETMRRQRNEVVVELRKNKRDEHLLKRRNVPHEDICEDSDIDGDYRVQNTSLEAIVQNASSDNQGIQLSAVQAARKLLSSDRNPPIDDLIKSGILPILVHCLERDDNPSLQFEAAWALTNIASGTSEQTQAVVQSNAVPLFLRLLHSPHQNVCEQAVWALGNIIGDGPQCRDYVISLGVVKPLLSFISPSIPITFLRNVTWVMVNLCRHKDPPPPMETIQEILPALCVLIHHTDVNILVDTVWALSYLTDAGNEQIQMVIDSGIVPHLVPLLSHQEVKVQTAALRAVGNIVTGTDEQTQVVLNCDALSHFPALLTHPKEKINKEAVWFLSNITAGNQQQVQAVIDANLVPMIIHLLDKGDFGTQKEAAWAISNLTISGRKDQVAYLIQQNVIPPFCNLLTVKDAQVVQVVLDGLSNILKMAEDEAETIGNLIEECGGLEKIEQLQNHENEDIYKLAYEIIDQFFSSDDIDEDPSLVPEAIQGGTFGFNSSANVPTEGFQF
UniProt O00505: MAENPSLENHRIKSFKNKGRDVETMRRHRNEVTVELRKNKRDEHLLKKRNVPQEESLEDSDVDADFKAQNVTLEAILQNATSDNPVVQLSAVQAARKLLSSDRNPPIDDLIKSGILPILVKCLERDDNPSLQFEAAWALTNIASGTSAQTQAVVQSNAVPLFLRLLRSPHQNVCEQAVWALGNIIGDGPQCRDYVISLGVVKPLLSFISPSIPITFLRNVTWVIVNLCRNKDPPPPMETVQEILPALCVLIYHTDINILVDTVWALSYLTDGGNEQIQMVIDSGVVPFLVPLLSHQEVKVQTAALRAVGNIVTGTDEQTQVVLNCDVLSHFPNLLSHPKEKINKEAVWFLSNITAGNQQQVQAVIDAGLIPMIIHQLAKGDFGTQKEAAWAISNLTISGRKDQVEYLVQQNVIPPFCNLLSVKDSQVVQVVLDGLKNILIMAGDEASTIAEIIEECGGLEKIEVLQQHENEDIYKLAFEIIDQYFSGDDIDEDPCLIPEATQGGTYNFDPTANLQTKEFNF

T1: ZFAND3 fused with a biotin ligase (ZFAND3-BirA) (UniProt Q9H8U3)
T1 sequence: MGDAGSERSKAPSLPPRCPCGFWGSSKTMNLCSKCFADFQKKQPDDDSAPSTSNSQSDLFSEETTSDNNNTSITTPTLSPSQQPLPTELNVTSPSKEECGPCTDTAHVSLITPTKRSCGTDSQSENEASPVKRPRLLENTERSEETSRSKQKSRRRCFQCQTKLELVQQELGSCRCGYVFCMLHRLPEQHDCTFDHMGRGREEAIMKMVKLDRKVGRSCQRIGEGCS

T2: FLAG-tagged ZFAND3 (UniProt Q9H8U3)
T2 sequence: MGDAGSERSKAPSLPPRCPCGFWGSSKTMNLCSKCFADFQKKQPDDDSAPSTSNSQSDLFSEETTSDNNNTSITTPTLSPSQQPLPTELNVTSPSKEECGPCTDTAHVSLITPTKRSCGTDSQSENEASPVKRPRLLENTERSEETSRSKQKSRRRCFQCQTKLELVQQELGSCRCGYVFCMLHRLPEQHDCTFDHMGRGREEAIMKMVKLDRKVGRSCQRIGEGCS


Experiments:
[1] = biological target: T1, ZFAND3 fused with a biotin ligase (ZFAND3-BirA); assay: proximity labelling; BioID: myc-BioID-ZFAND3 stably in NCH644 GSCs, 100 µM D-biotin 48 h, streptavidin magnetic beads, on-bead digestion, LC-MS/MS; nontransduced cells as control
FLAG-tagged ZFAND3 = biological target: T2, FLAG-tagged ZFAND3; assay: affinity purification with mass spectrometry; FLAG M2 antibody on Dynabeads M-270 Epoxy, whole cell lysate of NI GSCs overexpressing ZFAND3-FLAG, IP buffer with 100 mM NaCl, 4 °C 30 min, on-bead digestion, LC-MS/MS
[2] = biological target: T1, ZFAND3 fused with a biotin ligase (ZFAND3-BirA); assay: proximity labelling; BioID: myc-BioID-ZFAND3 stably in NCH644 GSCs, 100 µM D-biotin 48 h, streptavidin magnetic beads, on-bead digestion, LC-MS/MS; nontransduced cells as control; remark: listed apart in the source

Molecule	binding [1]	binding (FLAG-tagged ZFAND3)	binding [2]
PSMC3 (from UniProt P17980 1-439)	binds	binds	
Pontin (from UniProt Q9Y265 1-456)	binds	binds	
KPNA4 (from UniProt O00629 1-521)	binds	binds	
KPNA3 (from UniProt O00505 1-521)	binds	binds	
Treacle (protein, UniProt Q13428 1-1488) MAEARKRRELLPLIYHHLLRAGYVRAAREVKEQSGQKCFLAQPVTLLDIYTHWQQTSELGRKRKAEEDAALQAKKTRVSDPISTSESSEEEEEAEAETAKATPRLASTNSSVLGADLPSSMKEKAKAETEKAGKTGNSMPHPATGKTVANLLSGKSPRKSAEPSANTTLVSETEEEGSVPAFGAAAKPGMVSAGQADSSSEDTSSSSDETDVEGKPSVKPAQVKASSVSTKESPARKAAPAPGKVGDVTPQVKGGALPPAKRAKKPEEESESSEEGSESEEEAPAGTRSQVKASEKILQVRAASAPAKGTPGKGATPAPPGKAGAVASQTKAGKPEEDSESSSEESSDSEEETPAAKALLQAKASGKTSQVGAASAPAKESPRKGAAPAPPGKTGPAVAKAQAGKREEDSQSSSEESDSEEEAPAQAKPSGKAPQVRAASAPAKESPRKGAAPAPPRKTGPAAAQVQVGKQEEDSRSSSEESDSDREALAAMNAAQVKPLGKSPQVKPASTMGMGPLGKGAGPVPPGKVGPATPSAQVGKWEEDSESSSEESSDSSDGEVPTAVAPAQEKSLGNILQAKPTSSPAKGPPQKAGPVAVQVKAEKPMDNSESSEESSDSADSEEAPAAMTAAQAKPALKIPQTKACPKKTNTTASAKVAPVRVGTQAPRKAGTATSPAGSSPAVAGGTQRPAEDSSSSEESDSEEEKTGLAVTVGQAKSVGKGLQVKAASVPVKGSLGQGTAPVLPGKTGPTVTQVKAEKQEDSESSEEESDSEEAAASPAQVKTSVKKTQAKANPAAARAPSAKGTISAPGKVVTAAAQAKQRSPSKVKPPVRNPQNSTVLARGPASVPSVGKAVATAAQAQTGPEEDSGSSEEESDSEEEAETLAQVKPSGKTHQIRAALAPAKESPRKGAAPTPPGKTGPSAAQAGKQDDSGSSSEESDSDGEAPAAVTSAQVIKPPLIFVDPNRSPAGPAATPAQAQAASTPRKARASESTARSSSSESEDEDVIPATQCLTPGIRTNVVTMPTAHPRIAPKASMAGASSSKESSRISDGKKQEGPATQVSKKNPASLPLTQAALKVLAQKASEAQPPVARTQPSSGVDSAVGTLPATSPQSTSVQAKGTNKLRKPKLPEVQQATKAPESSDDSEDSSDSSSGSEEDGEGPQGAKSAHTLGPTPSRTETLVEETAAESSEDDVVAPSQSLLSGYMTPGLTPANSQASKATPKLDSSPSVSSTLAAKDDPDGKQEAKPQQAAGMLSPKTGGKEAASGTTPQKSRKPKKGAGNPQASTLALQSNITQCLLGQPWPLNEAQVQASVVKVLTELLEQERKKVVDTTKESSRKGWESRKRKLSGDQPAARTPRSKKKKKLGAGEGGEASVSPEKTSTTSKGKAKRDKASGDVKEKKGKGSLGSQGAKDEPEEELQKGMGTVEGGDQSNPKSKKEKKKSDKRKKDKEKKEKKKKAKKASTKDSESPSQKKKKKKKKTAEQTV		binds	binds
SF1 (protein, UniProt Q15637 1-639) MATGANATPLDFPSKKRKRSRWNQDTMEQKTVIPGMPTVIPPGLTREQERAYIVQLQIEDLTRKLRTGDLGIPPNPEDRSPSPEPIYNSEGKRLNTREFRTRKKLEEERHNLITEMVALNPDFKPPADYKPPATRVSDKVMIPQDEYPEINFVGLLIGPRGNTLKNIEKECNAKIMIRGKGSVKEGKVGRKDGQMLPGEDEPLHALVTANTMENVKKAVEQIRNILKQGIETPEDQNDLRKMQLRELARLNGTLREDDNRILRPWQSSETRSITNTTVCTKCGGAGHIASDCKFQRPGDPQSAQDKARMDKEYLSLMAELGEAPVPASVGSTSGPATTPLASAPRPAAPANNPPPPSLMSTTQSRPPWMNSGPSESRPYHGMHGGGPGGPGGGPHSFPHPLPSLTGGHGGHPMQHNPNGPPPPWMQPPPPPMNQGPHPPGHHGPPPMDQYLGSTPVGSGVYRLHQGKGMMPPPPMGMMPPPPPPPSGQPPPPPSGPLPPWQQQQQQPPPPPPPSSSMASSTPLPWQQNTTTTTTSAGTGSIPPWQQQQAAAAASPGAPQMQGNPTMVPLPPGVQPPLPPGAPPPPPPPPPGSAGMMYAPPPPPPPPMDPSNFVTMMGMGVAGMPPFGMPPAPPPPPPQN		binds	binds
PPIL4 (protein, UniProt Q8WUA2 1-492) MAVLLETTLGDVVIDLYTEERPRACLNFLKLCKIKYYNYCLIHNVQRDFIIQTGDPTGTGRGGESIFGQLYGDQASFFEAEKVPRIKHKKKGTVSMVNNGSDQHGSQFLITTGENLDYLDGVHTVFGEVTEGMDIIKKINETFVDKDFVPYQDIRINHTVILDDPFDDPPDLLIPDRSPEPTREQLDSGRIGADEEIDDFKGRSAEEVEEIKAEKEAKTQAILLEMVGDLPDADIKPPENVLFVCKLNPVTTDEDLEIIFSRFGPIRSCEVIRDWKTGESLCYAFIEFEKEEDCEKAFFKMDNVLIDDRRIHVDFSQSVAKVKWKGKGGKYTKSDFKEYEKEQDKPPNLVLKDKVKPKQDTKYDLILDEQAEDSKSSHSHTSKKHKKKTHHCSEEKEDEDYMPIKNTNQDIYREMGFGHYEEEESCWEKQKSEKRDRTQNRSRSRSRERDGHYSNSHKSKYQTDLYERERSKKRDRSRSPKKSKDKEKSKYR		binds	binds
